# These are yes or no findings as the source states them, for the method shown. Some binding calls cover weakened binding; strength is not graded here.
# Amino acid sequences for entries named in this document (tags omitted). A change or cut given only in a name is not applied to a line headed by its entry.
# UniProt P07766: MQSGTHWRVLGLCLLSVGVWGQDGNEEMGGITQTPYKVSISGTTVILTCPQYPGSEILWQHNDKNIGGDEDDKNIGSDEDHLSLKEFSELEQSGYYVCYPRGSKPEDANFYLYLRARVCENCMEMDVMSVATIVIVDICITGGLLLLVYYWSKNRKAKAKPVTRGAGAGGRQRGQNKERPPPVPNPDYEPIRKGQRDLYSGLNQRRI
# B1: 28-21-D09-sc28 (scFv)
# scFv: DIQMTQSPSSLSASVGDRVTITCQSSQSVFSNNYLAWFQQKPGKAPKRLIYSASTLASGVPSRFSGSGSGTDFTLTISSLQPEDFATYYCLGSYACSSADCYVFGTGTKVTVLGGGGGSGGGGSGGGGSGGGGSEVQLVESGGGLVQPGGSLRLSCAASGFSLSSYDMSWVRQAPGKGLEWIGASYASGPTYYASWAKGRFTISRDNSKNTVYLQMNSLRAEDTAVYYCARGGWTGTSHSNIWGQGTLVTVSS
# B2: 28-21-D09-sc04 (scFv)
# scFv: DIQMTQSPSSLSASVGDRVTITCQSSQSVFSNNYLAWFQQKPGQSPKRLIYSASTLASGVPSRFSGSGSGTDFTLTISSLQPEDFATYYCLGSYACSSADCYVFGTGTKVTVLGGGGGSGGGGSGGGGSGGGGSEVQLVESGGGLVQPGGSLRLSCAASGFSLSSYDMSWVRQAPGKGLAWIGASYASGPTYYASWAKGRFTISRDNSKNTVYLQMNSLRAEDTATYFCARGGWTGTSHSNIWGQGTLVTVSS
# B3: 28-21-D09-sc22 (scFv)
# scFv: DIQMTQSPSSLSASVGDRVTITCQSSQSVFSNNYLAWFQQKPGQSPKRLIYSASTLASGVPSRFSGSGSGTDFTLTISSLQPEDFATYYCLGSYACSSADCYVFGTGTKVTVLGGGGGSGGGGSGGGGSGGGGSEVQLVESGGGLVQPGGSLRLSCAASGFSLSSYDMSWVRQAPGKGLEWIGASYASGPTYYASWAKGRFTISRDNSKNTVYLQMNSLRAEDTAVYYCARGGWTGTSHSNIWGQGTLVTVSS
# B4: 28-21-D09-sc23 (scFv)
# scFv: DIQMTQSPSSLSASVGDRVTITCQSSQSVFSNNYLAWYQQKPGKAPKRLIYSASTLASGVPSRFSGSGSGTDFTLTISSLQPEDFATYYCLGSYACSSADCYVFGTGTKVTVLGGGGGSGGGGSGGGGSGGGGSEVQLVESGGGLVQPGGSLRLSCAASGFSLSSYDMSWVRQAPGKGLAWIGASYASGPTYYASWAKGRFTISRDNSKNTVYLQMNSLRAEDTAVYYCARGGWTGTSHSNIWGQGTLVTVSS
# B5: 28-21-D09-sc26 (scFv)
# scFv: DIQMTQSPSSLSASVGDRVTITCQSSQSVFSNNYLAWYQQKPGQSPKRLIYSASTLASGVPSRFSGSGSGTQFTLTISSLQPEDFATYYCLGSYACSSADCYVFGTGTKVTVLGGGGGSGGGGSGGGGSGGGGSEVQLVESGGGLVQPGGSLRLSCAASGFSLSSYDMSWVRQAPGKGLAWIGASYASGPTYYASWAKGRFTISRDNSKNTVYLQMNSLRAEDTAVYYCARGGWTGTSHSNIWGQGTLVTVSS
# B6: 28-21-D09-sc21 (scFv)
# scFv: DIQMTQSPSSLSASVGDRVTITCQSSQSVFSNNYLAWYQQKPGQSPKRLIYSASTLASGVPSRFSGSGSGTDFTLTISSLQPEDFATYYCLGSYACSSADCYVFGTGTKVTVLGGGGGSGGGGSGGGGSGGGGSEVQLVESGGGLVQPGGSLRLSCAASGFSLSSYDMSWVRQAPGKGLAWIGASYASGPTYYASWAKGRFTISRDNSKNTVYLQMNSLRAEDTAVYYCARGGWTGTSHSNIWGQGTLVTVSS
# B7: 28-21-D09-sc15 (scFv)
# scFv: DIQMTQSPSSLSASVGDRVTITCQSSQSVFSNNYLAWYQQKPGQSPKRLIYSASTLASGVPSRFSGSGSGTHFTLTISSLQPEDFATYYCLGSYACSSADCYVFGTGTKVTVLGGGGGSGGGGSGGGGSGGGGSEVQLVESGGGLVQPGGSLRLSCAASGFSLSSYDMSWVRQAPGKGLEWIGASYASGPTYYASWAKGRFTISRDNSKNTVYLQMNSLRAEDTATYFCARGGWTGTSHSNIWGQGTLVTVSS
# B8: 28-21-D09-sc18 (scFv)
# scFv: DIQMTQSPSSLSASVGDRVTITCQSSQSVFSNNYLAWYQQKPGQSPKRLIYSASTLASGVPSRFSGSGSGTHFTLTISSLQPEDFATYYCLGSYACSSADCYVFGTGTKVTVLGGGGGSGGGGSGGGGSGGGGSEVQLVESGGGLVQPGGSLRLSCAASGFSLSSYDMSWVRQAPGKGLEWIGASYASGPTYYASWAKGRFTISRDNSKNTVYLQMNSLRAEDTAVYYCARGGWTGTSHSNIWGQGTLVTVSS
# B9: 28-21-D09-sc27 (scFv)
# scFv: DIQMTQSPSSLSASVGDRVTITCQSSQSVFSNNYLAWYQQKPGQSPKRLIYSASTLASGVPSRFSGSGSGTDFTLTISSLQPEDFATYYCLGSYACSSADCYVFGTGTKVTVLGGGGGSGGGGSGGGGSGGGGSEVQLVESGGGLVQPGGSLRLSCAVSGFSLSSYDMSWVRQAPGKGLAWIGASYASGPTYYASWAKGRFTISRDNSKNTVYLQMNSLRAEDTAVYYCARGGWTGTSHSNIWGQGTLVTVSS
# B10: 28-21-D09-sc16 (scFv)
# scFv: DIQMTQSPSSLSASVGDRVTITCQSSQSVFSNNYLAWYQQKPGQSPKRLIYSASTLASGVPSRFSGSGSGTDFTLTISSLQPEDFATYYCLGSYACSSADCYVFGTGTKVTVLGGGGGSGGGGSGGGGSGGGGSEVQLVESGGGLVQPGGSLRLSCAASGFSLSSYDMSWVRQAPGKGLEWIGASYASGPTYYASWAKGRFTISRDNSKNTVYLQMNSLRAEDTATYFCARGGWTGTSHSNIWGQGTLVTVSS
# B11: 28-21-D09-sc19 (scFv)
# scFv: DIQMTQSPSSLSASVGDRVTITCQSSQSVFSNNYLAWYQQKPGQSPKRLIYSASTLASGVPSRFSGSGSGTDFTLTISSLQPEDFATYYCLGSYACSSADCYVFGTGTKVTVLGGGGGSGGGGSGGGGSGGGGSEVQLVESGGGLVQPGGSLRLSCAASGFSLSSYDMSWVRQAPGKGLEWIGASYASGPTYYASWAKGRFTISRDNSKNTVYLQMNSLRAEDTAVYYCARGGWTGTSHSNIWGQGTLVTVSS
# B12: 28-21-D09-sc24 (scFv)
# scFv: DIQMTQSPSSLSASVGDRVTITCQSSQSVFSNNYLAWYQQKPGQSPKKLIYSASTLASGVPSRFSGSGSGTDFTLTISSLQPEDFATYYCLGSYACSSADCYVFGTGTKVTVLGGGGGSGGGGSGGGGSGGGGSEVQLVESGGGLVQPGGSLRLSCAASGFSLSSYDMSWVRQAPGKGLAWIGASYASGPTYYASWAKGRFTISRDNSKNTVYLQMNSLRAEDTAVYYCARGGWTGTSHSNIWGQGTLVTVSS
# Molecular target: human CD3ε (recombinant, coupled to the SPR chip) (human) (UniProt P07766)
# Assay: SPR, scFv on immobilised CD3ε
row,Binder,binding
1,B1,binds
2,B2,binds
3,B3,binds
4,B4,binds
5,B5,binds
6,B6,binds
7,B7,binds
8,B8,binds
9,B9,binds
10,B10,binds
11,B11,binds
12,B12,binds

# — patent US20220403028A1 (NUMAB THERAPEUTICS, published 2022)
